Results are given in words; binding and its absence hold for the method and conditions named. Some entries that bind do so weakly or less than the wild type. Sequences can lack the tags named with a protein.
Biological target: HERG-1a-Citrine (human)
Experiment: FRET between eCFP and Citrine fusions in Xenopus oocytes

B1: HERG-1a-eCFP (protein)
chain: MPVRRGHVAPQNTFLDTIIRKFEGQSRKFIIANARVENCAVIYCNDGFCELCGYSRAEVMQRPCTCDFLHGPRTQRRAAAQIAQALLGAEERKVEIAFYRKDGSCFLCLVDVVPVKNEDGAVIMFILNFEVVMEKDMVGSPAHDTNHRGPPTSWLAPGRAKTFRLKLPALLALTARESSVRSGGAGGAGAPGAVVVDVDLTPAAPSSESLALDEVTAMDNHVAGLGPAEERRALVGPGSPPRSAPGQLPSPRAHSLNPDASGSSCSLARTRSRESCASVRRASSADDIEAMRAGVLPPPPRHASTGAMHPLRSGLLNSTSDSDLVRYRTISKIPQITLNFVDLKGDPFLASPTSDREIIAPKIKERTHNVTEKVTQVLSLGADVLPEYKLQAPRIHRWTILHYSPFKAVWDWLILLLVIYTAVFTPYSAAFLLKETEEGPPATECGYACQPLAVVDLIVDIMFIVDILINFRTTYVNANEEVVSHPGRIAVHYFKGWFLIDMVAAIPFDLLIFGSGSEELIGLLKTARLLRLVRVARKLDRYSEYGAAVLFLLMCTFALIAHWLACIWYAIGNMEQPHMDSRIGWLHNLGDQIGKPYNSSGLGGPSIKDKYVTALYFTFSSLTSVGFGNVSPNTNSEKIFSICVMLIGSLMYASIFGNVSAIIQRLYSGTARYHTQMLRVREFIRFHQIPNPLRQRLEEYFQHAWSYTNGIDMNAVLKGFPECLQADICLHLNRSLLQHCKPFRGATKGCLRALAMKFKTTHAPPGDTLVHAGDLLTALYFISRGSIEILRGDVVVAILGKNDIFGEPLNLYARPGKSNGDVRALTYCDLHKIHRDDLLEVLDMYPEFSDHFWSSLEITFNLRDTNMIPGSPGSTELEGGFSRQRKRKLSFRRRTDKDTEQPGEVSALGPGRAGAGPSSRGRPGGPWGESPSSGPSSPESSEDEGPGRSSSPLRLVPFSSPRPPGEPPGGEPLMEDCEKSSDTCNPLSGAFSGVSNIFSFWGDSRGRQYQELPRCPAPTPSLLNIPLSSPGRRPRGDVESRLDALQRQLNRLETRLSADMATVLQLLQRQMTLVPPAYSAVTTPGPGPTSTSPLLPVSPLPTLTLDSLSQVSQFMACEELPPGAPELPQEGPTRRLSLPGQLGALTSQPLHRHGSDPGSMVSKGEELFTGVVPILVELDGDVNGHRFSVSGEGEGDATYGKLTLKFICTTGKLPVPWPTLVTTLTWGVQCFSRYPDHMKQHDFFKSAMPEGYVQERTIFFKDDGNYKTRAEVKFEGDTLVNRIELKGIDFKEDGNILGHKLEYNYISHNVYITADKQKNGIKAHFKIRHNIEDGSVQLADHYQQNTPIGDGPVLLPDNHYLSTQSKLSKDPNEKRDHMVLLEFVTAAGITLGMDELYK
binding: binds
